{"source": "PubChem BioAssay AID1259424 (University of Nebraska Medical Center, 2018)", "test": "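Rank knockdowns across the genome by resemblance to the KSR1 depletion profile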 (primary screen)", "cells": "human HCT116 colon cancer cells", "reagents": "siRNA pool against human genes, 50 nM", "read-out": "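Six signature mRNAs by branched-DNA multiplex assay, scaled to two housekeeping genes and non-targeting median, log2; matched to mean KSR1 knockdown profile by Pearson correlation and euclidean distance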", "direction": "mean correlation with KSR1 profile: higher = expression change more like KSR1 knockdown", "note": "Shown is an unselected part of about 14,000 reagents tested. 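Higher correlation or smaller distance means closer resemblance to KSR1 loss; control wells, including KSR1 knockdowns, recur on many plates.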 Not all columns of the deposit are shown. Not stated in the record: the time to read-out."}
{"Target gene":"FCGBP (Fc gamma binding protein)","mean correlation with KSR1 profile":0.0577}
{"Target gene":"MYO3B (myosin IIIB)","mean correlation with KSR1 profile":0.288}
{"Target gene":"ADAR (adenosine deaminase RNA specific)","mean correlation with KSR1 profile":-0.65}
{"Target gene":"RNF111 (ring finger protein 111)","mean correlation with KSR1 profile":-0.734}
{"Target gene":"RPS6KA1 (ribosomal protein S6 kinase A1)","mean correlation with KSR1 profile":0.317}

Next part (2 carried over from the part before).
{"Target gene":"RNF111 (ring finger protein 111)","mean correlation with KSR1 profile":-0.734}
{"Target gene":"RPS6KA1 (ribosomal protein S6 kinase A1)","mean correlation with KSR1 profile":0.317}
{"Target gene":"STK17A (serine/threonine kinase 17a)","mean correlation with KSR1 profile":0.0535}
{"Target gene":"DDX20 (DEAD-box helicase 20)","mean correlation with KSR1 profile":0.234}
{"Target gene":"PHTF1 (putative homeodomain transcription factor 1)","mean correlation with KSR1 profile":-0.238}
{"Target gene":"H1-10 (H1.10 linker histone)","mean correlation with KSR1 profile":-0.119}
{"Target gene":"RGS11 (regulator of G protein signaling 11)","mean correlation with KSR1 profile":0.162}
{"Target gene":"STRADA (STE20 related adaptor alpha)","mean correlation with KSR1 profile":-0.178}
{"Target gene":"KLRA1P (killer cell lectin like receptor A1, pseudogene)","mean correlation with KSR1 profile":0.485}
